According to publication PMC5571219:
Results are given in words; binding and its absence hold for the method and conditions named. In cells and extracts the contact can be indirect. Some binding calls cover weakened binding; strength is not graded here. Where a sequence is shown, tags or fusion partners need not be part of it. Values belong to the binder of their own block, whether it stands above or below them.

Experiments:
[1] = biological target: T1, HA-tagged Whi5 (S. cerevisiae) (UniProt Q12416); test: co-IP; HA-tagged Whi7 or Whi5 immunoprecipitated from yeast crude extracts with HA-probe (F-7) antibody on Dynabeads Protein G, 20 min at room temperature; 50 mM Tris-HCl pH 8, 250 mM NaCl, 5 mM EDTA, 0.1% Triton X-100; western blot of input, unbound and immunoprecipitated fractions; for Grr1ΔF-flag cells were grown on raffinose and transferred to galactose for 4 h
T1 sequence: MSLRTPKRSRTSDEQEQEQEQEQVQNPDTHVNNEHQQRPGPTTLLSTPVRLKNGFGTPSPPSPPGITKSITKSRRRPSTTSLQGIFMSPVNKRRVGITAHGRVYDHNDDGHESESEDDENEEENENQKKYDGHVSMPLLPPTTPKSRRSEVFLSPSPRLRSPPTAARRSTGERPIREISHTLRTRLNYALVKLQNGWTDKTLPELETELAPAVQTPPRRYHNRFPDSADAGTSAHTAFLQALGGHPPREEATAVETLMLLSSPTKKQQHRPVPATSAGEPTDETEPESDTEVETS

[2] = biological target: T2, HA-tagged wild-type Whi7 (plasmid pWHI7) (S. cerevisiae) (UniProt P36167); test: as above
T2 sequence: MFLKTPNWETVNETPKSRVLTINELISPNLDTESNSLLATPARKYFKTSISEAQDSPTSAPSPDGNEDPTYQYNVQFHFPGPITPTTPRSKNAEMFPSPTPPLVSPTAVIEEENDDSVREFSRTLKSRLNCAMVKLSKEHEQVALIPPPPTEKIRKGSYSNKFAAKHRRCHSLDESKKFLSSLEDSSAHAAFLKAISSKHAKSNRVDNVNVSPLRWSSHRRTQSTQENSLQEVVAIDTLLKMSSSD

- binding [1]: binds
- binding [2]: binds
B1: myc-tagged Swi6 (protein, UniProt P09959 1-803)
chain: MALEEVVRYLGPHNEIPLTLTRDSETGHFLLKHFLPILQQYHDTGNINETNPDSFPTDEERNKLLAHYGIAVNTDDRGELWIELEKCLQLLNMLNLFGLFQDAFEFEEPETDQDEEDPSHSKLPENKTKSENSKDNISSKRINNLQDMSLDSDAHRELGSPLKKLKIDTSVIDAESDSTPNTARGKPNDDINKGPSGDNENNGTDDNDRTAGPIITFTHDLTSDFLSSPLKIMKALPSPVVNDNEQKMKLEAFLQRLLFPEIQEMPTSLNNDSSNRNSEGGSSNQQQQHVSFDSLLQEVNDAFPNTQLNLNIPVDEHGNTPLHWLTSIANLELVKHLVKHGSNRLYGDNMGESCLVKAVKSVNNYDSGTFEALLDYLYPCLILEDSMNRTILHHIIITSGMTGCSAAAKYYLDILMGWIVKKQNRPIQSGTNEKESKPNDKNGERKDSILENLDLKWIIANMLNAQDSNGDTCLNIAARLGNISIVDALLDYGADPFIANKSGLRPVDFGAGTSKLQNTNGGDENSKMVSKGDYDGQKNGKAKKIRSQLLKNPPETTSLINDVQNLLNSISKDYENETVQYNEKLEKLHKELNEQREELANSREQLANVKQLKDEYSLMQEQLTNLKAGIEEEEESFREESKKLGIIADESSGIDWDSSEYDADEPFKVEFLSDFLEDKLQKNYEGDISKLLEAESKEQIMEQIRNQLPAEKIQSMLPPTVLLKARINAYKRNDKHLTNVLDTISTKQSELENKFRRVLSLCLKIDENKVDNMLDGLLQAISSEDPQDIDTDEMQDFLKKHAS

- binding [1]: binds
- binding [2]: binds
B2: myc-tagged Swi4 (protein, UniProt P25302 1-1093)
chain: MPFDVLISNQKDNTNHQNITPISKSVLLAPHSNHPVIEIATYSETDVYECYIRGFETKIVMRRTKDDWINITQVFKIAQFSKTKRTKILEKESNDMQHEKVQGGYGRFQGTWIPLDSAKFLVNKYEIIDPVVNSILTFQFDPNNPPPKRSKNSILRKTSPGTKITSPSSYNKTPRKKNSSSSTSATTTAANKKGKKNASINQPNPSPLQNLVFQTPQQFQVNSSMNIMNNNDNHTTMNFNNDTRHNLINNISNNSNQSTIIQQQKSIHENSFNNNYSATQKPLQFFPIPTNLQNKNVALNNPNNNDSNSYSHNIDNVINSSNNNNNGNNNNLIIVPDGPMQSQQQQQHHHEYLTNNFNHSMMDSITNGNSKKRRKKLNQSNEQQFYNQQEKIQRHFKLMKQPLLWQSFQNPNDHHNEYCDSNGSNNNNNTVASNGSSIEVFSSNENDNSMNMSSRSMTPFSAGNTSSQNKLENKMTDQEYKQTILTILSSERSSDVDQALLATLYPAPKNFNINFEIDDQGHTPLHWATAMANIPLIKMLITLNANALQCNKLGFNCITKSIFYNNCYKENAFDEIISILKICLITPDVNGRLPFHYLIELSVNKSKNPMIIKSYMDSIILSLGQQDYNLLKICLNYQDNIGNTPLHLSALNLNFEVYNRLVYLGASTDILNLDNESPASIMNKFNTPAGGSNSRNNNTKADRKLARNLPQKNYYQQQQQQQQPQNNVKIPKIIKTQHPDKEDSTADVNIAKTDSEVNESQYLHSNQPNSTNMNTIMEDLSNINSFVTSSVIKDIKSTPSKILENSPILYRRRSQSISDEKEKAKDNENQVEKKKDPLNSVKTAMPSLESPSSLLPIQMSPLGKYSKPLSQQINKLNTKVSSLQRIMGEEIKNLDNEVVETESSISNNKKRLITIAHQIEDAFDSVSNKTPINSISDLQSRIKETSSKLNSEKQNFIQSLEKSQALKLATIVQDEESKVDMNTNSSSHPEKQEDEEPIPKSTSETSSPKNTKADAKFSNTVQESYDVNETLRLATELTILQFKRRMTTLKISEAKSKINSSVKLDKYRNLIGITIENIDSKLDDIEKDLRANA
